Source: ChEMBL document CHEMBL3988442, “University of Dundee, Small-Polar-MMV Screening Library” (2021).

Chains of the proteins cited; added tags and fusions are not shown.
UniProt E9BF75, entry or part of it: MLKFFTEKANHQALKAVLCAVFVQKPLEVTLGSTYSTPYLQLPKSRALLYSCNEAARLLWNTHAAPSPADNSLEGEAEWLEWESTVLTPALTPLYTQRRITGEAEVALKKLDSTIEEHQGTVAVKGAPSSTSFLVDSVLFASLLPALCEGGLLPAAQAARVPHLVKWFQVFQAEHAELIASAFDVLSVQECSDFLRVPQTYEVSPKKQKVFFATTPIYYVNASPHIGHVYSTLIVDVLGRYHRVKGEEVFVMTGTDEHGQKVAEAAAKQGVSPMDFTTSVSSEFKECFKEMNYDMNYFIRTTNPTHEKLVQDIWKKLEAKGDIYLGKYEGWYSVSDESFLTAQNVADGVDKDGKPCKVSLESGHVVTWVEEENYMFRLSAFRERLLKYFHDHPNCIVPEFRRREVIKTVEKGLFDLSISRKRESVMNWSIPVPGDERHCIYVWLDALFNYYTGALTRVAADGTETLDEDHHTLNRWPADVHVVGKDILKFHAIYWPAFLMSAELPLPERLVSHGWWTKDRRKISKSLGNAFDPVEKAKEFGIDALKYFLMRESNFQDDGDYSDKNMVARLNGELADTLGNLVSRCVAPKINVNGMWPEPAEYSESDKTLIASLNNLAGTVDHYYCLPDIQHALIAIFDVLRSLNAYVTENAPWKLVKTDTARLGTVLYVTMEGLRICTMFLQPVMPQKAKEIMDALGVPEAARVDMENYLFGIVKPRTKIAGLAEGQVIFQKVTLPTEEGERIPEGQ

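Primary screen of methionyl-tRNA synthetase; the read-out is not stated. Target: Methionyl-tRNA synthetase (putative), Leishmania donovani (UniProt E9BF75). The test concentration is not given. The values are filed as inhibition. Of about 68,000 compounds tested this way, about 24 (0.035%) reached 50% or more in at least one test.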

Results are percentages, as filed.
How 0% and 100% were set is not recorded. Most values in the screen are low, and negative values occur.
This is an unselected part of the compounds tested.

compound | Inhibition
O=C(Cc1ccc(-n2cnnn2)cc1)Nc1cnn(CC(F)F)c1 | 10.76
NC(=O)NCC1CCCCN1C(=O)c1cc(F)cc(F)c1 (centres unmarked) | 14.25
O=C(Nc1ccccc1)N1C(CO)[C@]2(O)CC[C@H]1CC2 (some centres unmarked) | 4.658
O=C(NCCc1ccncc1)[C@H]1C[C@@H]2CCN(c3nncs3)C[C@H]2O1 | 5.584
Cc1cccc(CN2C(=O)CC[C@@H]3[C@H]2CCN3Cc2ccc(F)cc2)n1 | 10.48
O=C(c1cnc(COc2ccccc2)nc1O)N1CCC(F)(F)CC1 | 12.36
Cc1nnc(CN(C)CCCOc2cccc(Cl)c2)o1 | 7.459
CC(=O)N(Cc1ncc(C)o1)C1CCN(Cc2ccc(F)c(F)c2)C1 (centres unmarked) | 14.08
COc1ccccc1C(=O)NC(c1ccccn1)[C@H]1CC[C@H](CN)CC1 (some centres unmarked) | 37.88
COc1cccc2c1OCC(CNC(=O)Cc1cnccn1)C2 (centres unmarked) | 7.904
COCCn1cnnc1CCNc1cc(C)nc2ccnn12 | 11.91
N#Cc1cccc(CNc2cc(CO)ccc2Cl)c1 | 13.54
c1cncc(-c2ncnc3c2CCN(Cc2ccsc2)CC3)c1 | -2.538
CN1CCN(C(=O)Cn2ccc3c(Cl)cccc32)CC1 | 13.15
Cc1ncc2c(n1)CN(Cc1nc3c(F)cccc3[nH]1)CC2 | 24.83
COc1cccc2cc(CNC(C)(C)C(=O)N3CCC(O)CC3)oc12 | 2.347
CNc1ccc(CC2CCCN(C(=O)c3cccc(C)n3)C2)nn1 (centres unmarked) | 8.706
Cc1nc(NCC2CCOCC2)cc(C2CCN2S(C)(=O)=O)n1 (centres unmarked) | 12.46
CNC(=O)CCNC(=O)c1cc(Br)c2c(c1)OCCO2 | 17.01
COc1ccc2c(c1)CN(Cc1ccco1)C(=O)CCN2CC(C)(C)O | 1.351
Cc1ccc2oc(CN3CCn4nc(CCC(=O)O)cc4C3)c(C)c2c1 | 12.04
CCC(=O)N1CCc2c(O)nc(C3CCCCN3C(=O)C3CC3)nc2C1 (centres unmarked) | 4.984
NC(=O)CN1CCOCC(Cc2ccccc2Cl)C1 (centres unmarked) | 10.36
CS(=O)(=O)CCSCc1cccc2cccnc12 | -2.005
Cc1nsc(NC(=O)N2CCCCC2CCCO)n1 (centres unmarked) | 2.452
CCc1nc(C)sc1CN1CCc2[nH]nc(-c3ccc(F)c(F)c3)c2C1 | -2.211
CC(C)(C)c1coc([C@@H]2COCCN2Cc2c[nH]c3ccccc23)n1 | 12.03
c1ccc(N2CCCC3(COCCN(c4nccs4)C3)C2)nc1 (centres unmarked) | 28.5
Cc1ccc2c(n1)N(CCN(C)C)CCN(C(=O)N1CCOCC1)C2 | 16.48
O=C(CC1CC1)N[C@@H]1CN(Cc2nccs2)C[C@@H]2CCCO[C@@H]21 | 17.78
O=C1CCC2(CCCN(C(=O)c3ccco3)CC2)N1 (centres unmarked) | 6.111
Cc1cnc(N2CC3(CCN(S(=O)(=O)C4CC4)C3)C2)nc1 | 11.76
CC(C)OC(=O)CN1N=C(C(=O)N2CCCC2)S(=O)(=O)c2ccccc21 | 10.07
COCC(O)CN1CCC(NC(=O)c2ccccc2Cl)CC1 (centres unmarked) | 9.524
CCCSc1ccccc1NC(=O)N1CCC(N2CCSCC2)CC1 | 2.957
Cn1c2c(c(=O)n1C)CN(C(=O)c1ccncc1F)CCC2 | 8.211
CCc1nc(CSC2CCCN(c3cnn(C)c3)C2=O)cs1 (centres unmarked) | 15.86
COc1cccc2[nH]cc(CCNC(=O)N3CCC[C@H]3CO)c12 | 7.124
COc1cccc(Cn2ncnc2CNC(C)=O)c1 | 9.148
C[C@H]1C[C@H]2CN(C(=O)CC3CC3)CC[C@H]2O1 | 8.458
Cc1cnn(CC(C)NCc2csc(-c3cnn(C)c3)n2)c1 (centres unmarked) | 2.083
O=C1CC(c2ccncc2)c2c(c(C(=O)O)cn2-c2ccccc2)N1 (centres unmarked) | 15.25
CCc1ccc(O)c(C(=O)N2CCCN(CC(=O)N(CC)CC)CC2)c1 | 5.455
CN1C(=O)C(c2cccnc2)CC12CCN(C(=O)c1ccc[nH]1)CC2 (centres unmarked) | 0
Cc1ccccc1CNC(=O)CN1CCN(Cc2nccn2C)CC1 | 9.15
Cc1cc(-c2nccs2)nc(C2CCN(Cc3cccs3)CC2)n1 | 16.83
Clc1cccc2c3c([nH]c12)CCN(Cc1cc2n(n1)CCCNC2)C3 | 8.824
Cc1nc(-c2ccccc2)sc1C(=O)N(C1CC1)C1CC(=O)NC1=O (centres unmarked) | 11.03
CC(C)S(=O)(=O)NC(=O)CC(c1ccccc1)C(F)(F)F (centres unmarked) | 12.81
Cc1nn(C)c(Oc2ccc(Cl)cc2)c1CN1CCOC(CN)C1 (centres unmarked) | 3.194
CC(C)Cc1ncc2c(n1)CN(c1nccc(NC(C)C)n1)C2 | 18.06
c1ccc(N2CCCC3(CCN(Cc4cccs4)C3)C2)nc1 (centres unmarked) | 3.03
c1ccc(OC2CCCC2)c(CNC2CCc3ncnn3C2)c1 (centres unmarked) | 15.34
Cc1cc(N2CCC(C(=O)O)(n3ccc(C(C)(C)C)n3)CC2)nc(N)n1 | 8.824
NCc1ccc(Oc2cccc(Cl)c2Cl)nc1 | 3.495
COc1cc(C(=O)Nc2cn[nH]c2)ccc1C | 19.13
COCC(=O)N1CCc2nc(C)nc(NC(C)C)c2CC1 | 10.34
COCCNC(=O)[C@H]1C[C@@H]2CCN(CCc3ccccc3)C[C@H]2O1 | 18.68
CCN1CCCC(C)(C(=O)NCc2nccn2Cc2ccccc2)C1 (centres unmarked) | 12.15
CN(Cc1nc(C(C)(C)C)no1)C1CCS(=O)(=O)C1 (centres unmarked) | 12.99
COCCNc1cc(C2CCCNC2)ccn1 (centres unmarked) | 12.46
CCCc1cc(C(=O)N(C)Cc2cccc3cnccc23)n(C)n1 | 11.35
O=C(NCC(=O)N1CCCCC1)c1sccc1C1CC1 | 2.542
CCCS(=O)(=O)N1CCC2(CC1)CC(Nc1ncccn1)CO2 (centres unmarked) | 19.16
CC(C(=O)NCCOc1ccccc1)n1cncn1 (centres unmarked) | 18.87
Cc1nc2n(n1)CC(NCC(=O)NCCC1=CCCCC1)CC2 (centres unmarked) | 13.17
Cc1ccc(OC2(C(=O)O)CCN(C(=O)c3cccc(F)c3)CC2)cn1 | 10.44
CC1CN(C(=O)c2cc[nH]c(=O)c2)c2ccccc21 (centres unmarked) | 12.1
Cc1cc(C)cc(N2CCN(C(=O)C3CN(C)C(=O)N3)CC2=O)c1 (centres unmarked) | 18.32
O=C(NC[C@]12COC[C@H]1CN(CC1CCOCC1)C2)c1ccco1 | 20.88
C[S+]([O-])c1ccc(CNc2ccc(F)cc2OC(F)F)cc1 (centres unmarked) | -2.717
Cc1cn2nc(N3CCCC3CC(C)(C)C)sc2n1 (centres unmarked) | 9.722
CCN(CC)C(=O)NCCc1ccn(-c2ccccc2)n1 | 11.48
Cc1ccc(CN2CCc3ncnc(-c4ccncc4)c3CC2)o1 | 9.645
CN(C)CCN1C[C@@H]2CN(C(=O)C3CCOC3)C[C@@H]2C1=O (some centres unmarked) | -1.449
Cc1ccc(S(=O)(=O)Nc2ccc(-n3cccc3C(=O)O)c(C)c2)cc1 | 15.38
CCOCC1CN(S(=O)(=O)C2CC2)Cc2cnn(C)c21 (centres unmarked) | -2.857
CCOc1ccc(N2CCCN=C2NC(=O)c2cccc(OC)c2)cc1 | -25.38
CN(C)[C@@H]1CN(Cc2ccc(O)cc2)C[C@H]1c1cn(C)c2ccccc12 | 7.477
COc1cccc(OCC(=O)NS(=O)(=O)c2ccc(C)s2)c1 | 1.408
Cn1ccc(C(=O)N2CCCC(c3cc4cccnc4c(O)n3)C2)n1 (centres unmarked) | 12.03
Cc1cc(C2CCCN(C(=O)c3c(C)nn4cccnc34)C2)n[nH]1 (centres unmarked) | 20.98
O=C(c1cnccn1)N1CCOC2(CCCN(c3ncccc3F)C2)C1 (centres unmarked) | 13.14
O=C(NCCNC(=O)C1CCN(CC(F)(F)F)CC1)c1ccoc1 | 9.749
Cc1ccccc1-c1noc(CN2CCC(c3ccn[nH]3)CC2)n1 | 6.355
Cc1ccc(CN2CCn3c(COc4cccnc4)cnc3C2C)o1 (centres unmarked) | 17.01
CCNc1cc2c(nn1)CCN(C(=O)C(C)c1c(C)noc1C)C2 (centres unmarked) | 9.777
CCc1nc(C2CCCN(c3nccc(N4CCCC4)n3)C2)no1 (centres unmarked) | 4.396
CC1(C)CN(C(CNS(C)(=O)=O)c2ccc(Cl)cc2)CCO1 (centres unmarked) | 1.809
Cc1nnc(N2CCCC3(CN(Cc4ccc(C)s4)CCO3)C2)o1 (centres unmarked) | 6.5